This note sets out measurements from article PMC7819943, “Rice protein-binding microarrays: a tool to detect cis-acting elements near promoter regions in rice”.

The other results are listed elsewhere or left out.

For this test, the target named is T1, OsSMF1 (Oryza sativa, UniProt Q6ZLB0 1-436).
T1 sequence: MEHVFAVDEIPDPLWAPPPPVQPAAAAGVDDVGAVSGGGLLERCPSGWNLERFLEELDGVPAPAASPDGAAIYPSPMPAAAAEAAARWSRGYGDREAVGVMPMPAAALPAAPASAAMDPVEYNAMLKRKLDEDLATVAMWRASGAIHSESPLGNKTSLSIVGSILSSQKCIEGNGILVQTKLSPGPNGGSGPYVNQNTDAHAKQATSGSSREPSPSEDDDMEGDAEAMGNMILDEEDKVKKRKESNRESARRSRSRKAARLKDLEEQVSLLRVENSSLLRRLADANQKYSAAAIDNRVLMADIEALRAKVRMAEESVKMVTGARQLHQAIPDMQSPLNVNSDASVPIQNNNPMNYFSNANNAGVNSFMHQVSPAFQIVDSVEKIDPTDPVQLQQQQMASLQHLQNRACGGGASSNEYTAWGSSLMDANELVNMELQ
The test is described as follows: protein-binding microarray (RPBM); PBS, 2% BSA, 51.3 ng/ul salmon testes DNA, 50 uM zinc acetate, 200 nM TF, 25 C, 1 h; high values mean tight binding. Conditions: protein: recombinant; tags: N-terminal polyhistidine and DsRed monomer fusion (pET32a); chain copies: 2; label: CyDye5-dUTP incorporated in the synthesized complementary strand; 3' TTTTT single-stranded linker to array surface; dsDNA, one strand shown. The method in brief: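 Binding signal is defined as the fluorescence intensity of each feature in arbitrary units, read on an Axon 4000B scanner. Transcription factors with N-terminal polyhistidine and DsRed fusions came from E. coli BL21-CodonPlus and were purified on Ni–NTA. They were incubated at 200 nM for 1 h at 25 °C on a custom Agilent array that had been made double-stranded with Cy5-dUTP, with 50 µM zinc acetate present, and the array was washed.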
For the sequence “CAACCTCCAGCTCATGGCTACTCTCTCTCTCTCTCTCTCTCGGAGTCACCTAGTGCAG”, the binding signal was 5380 fluorescence intensity (a.u.).

For the sequence “AATACAGCACATACTATATGTATATTTGGTGACGCCCTCTCGGAGTCACCTAGTGCAG”, the binding signal is 3180 fluorescence intensity (a.u.).

In the case of “TTTGAAGTCAGCAATGTAACACGTGGCCGAATCAGATTGCCGGAGTCACCTAGTGCAG”, the binding signal is 12600 fluorescence intensity (a.u.).

“AGATGCTGCTTCTGGGAGAAGTAGACCACGTGTGGTTTGCCGGAGTCACCTAGTGCAG”: the binding signal is 3640 fluorescence intensity (a.u.).

For the sequence “ATAGAGTGACCTTAGCAATTGGTGATGGGGCAAATGATGTCGGAGTCACCTAGTGCAG”, the binding signal was 3540 fluorescence intensity (a.u.).

Regarding “GCAGCTACGGCTTTGTGAACTCTGGCTCCATGCTGTCACCCGGAGTCACCTAGTGCAG”, the binding signal is 10300 fluorescence intensity (a.u.).

With “AATTCTCAAATAAATCAGTAGTGAGACAATGGTGCCAATCCGGAGTCACCTAGTGCAG”, the binding signal was 3560 fluorescence intensity (a.u.).

For the sequence “TCTCAGCCTGTCCAATTCATACAAAGCCTACGCAGTAAGACGGAGTCACCTAGTGCAG”, the binding signal was 20200 fluorescence intensity (a.u.).

As to “ACGTGCTACACGTGGCAGACAGACATGTGGGCCCTCCCCACGGAGTCACCTAGTGCAG”, the binding signal was 15100 fluorescence intensity (a.u.).

For “GGCGTGCGTACCAGTGCTGTTCGTCGTCGTCATCGCTCGACGGAGTCACCTAGTGCAG”, the binding signal was 5110 fluorescence intensity (a.u.).

In the case of “CGCCCGACGCCGCCGCAACTGCCGTAAGCGGCTTTATCACCGGAGTCACCTAGTGCAG”, the binding signal is 3190 fluorescence intensity (a.u.).

As to “TTGGTGCTGGTGGAGTTGATGTGGGCGGTGAGACATCAAACGGAGTCACCTAGTGCAG”, the binding signal is 3650 fluorescence intensity (a.u.).

“TCCTAGGAGTTGTTTCTACCTGTGCTGCTGCTGCTGATTTCGGAGTCACCTAGTGCAG”: the binding signal is 33500 fluorescence intensity (a.u.).

Regarding “CCAGGAGCTCCTTCCTGCCACGTCATCAATGGCGATGATGCGGAGTCACCTAGTGCAG”, the binding signal was 17000 fluorescence intensity (a.u.).

Take “TGACTAGTTGAAAATATGACTATGAATTTGAGGCACTACCCGGAGTCACCTAGTGCAG”: the binding signal was 3940 fluorescence intensity (a.u.).

For the sequence “AAGAGATGGGGATTAAACCAATTGGGCCGAAAGATATGTCCGGAGTCACCTAGTGCAG”, the binding signal was 41200 fluorescence intensity (a.u.).

As for “CGACGGCTTCCCGCCGCCGTATCCGTCACCACTAGCCACCCGGAGTCACCTAGTGCAG”, the binding signal is 4170 fluorescence intensity (a.u.).

As for “AATGTCAGGGATGATCAGCCAACGTGGCAAATATGCTAATCGGAGTCACCTAGTGCAG”, the binding signal was 4900 fluorescence intensity (a.u.).

“TGCTCCGCCGCGCTCCACACCAGCCGCTGCCGCCGCCGCCCGGAGTCACCTAGTGCAG”: the binding signal is 20100 fluorescence intensity (a.u.).

Take “CGCGGTGCCGCCATTGCCGCCTCACTCCTCCTCCACTCCCCGGAGTCACCTAGTGCAG”: the binding signal was 3180 fluorescence intensity (a.u.).

In the case of “CGGAGAACGTGACGGGGCCATAGAGGGAAGGGTGGCGTGACGGAGTCACCTAGTGCAG”, the binding signal is 3150 fluorescence intensity (a.u.).

As to “TCAGCCGTAGATACAAGATCTGACGGTGCAGATGGAAGGGCGGAGTCACCTAGTGCAG”, the binding signal is 3760 fluorescence intensity (a.u.).

As to “TTCAGTGGTGCGCGCGTGGTGGCGCCACGGAGGCCGACAACGGAGTCACCTAGTGCAG”, the binding signal is 3690 fluorescence intensity (a.u.).

As to “GGGATATCTCTCCCCTCCTAACTAAATAAAGGAAGGAAGCCGGAGTCACCTAGTGCAG”, the binding signal was 5610 fluorescence intensity (a.u.).

Consider “CGGCATTCGCCAAAGGCCGGGAGAGTCGATAAGAGAATACCGGAGTCACCTAGTGCAG”, for which the binding signal is 7060 fluorescence intensity (a.u.).

For the sequence “GCCCGGTCGGTCAGTGTGTGTCACTGTCTCTCACCCTCCCCGGAGTCACCTAGTGCAG”, the binding signal is 5750 fluorescence intensity (a.u.).

As to “TAGAGGGAGATCTATACTCACTCTGATCCTAAATACGAACCGGAGTCACCTAGTGCAG”, the binding signal was 32600 fluorescence intensity (a.u.).

As to “CTTCCATTCTAGCAGATAGAAAGAAACTAAAAGACACAGCCGGAGTCACCTAGTGCAG”, the binding signal was 26300 fluorescence intensity (a.u.).

With “CCGCCACCGCCACCTCGCTGTCGTGGCTACCTCAGCCGTCCGGAGTCACCTAGTGCAG”, the binding signal is 7620 fluorescence intensity (a.u.).

Consider “TGTCCCTCTCTCATCATCATCATTCATCAATCGTCGCCTGCGGAGTCACCTAGTGCAG”, for which the binding signal is 15500 fluorescence intensity (a.u.).

Take “ATGCATGTGTGGAGTCATCCAATGGTTCCTTCTCCCTTGCCGGAGTCACCTAGTGCAG”: the binding signal was 5140 fluorescence intensity (a.u.).

For “CGCAGCAGCAGTAGCCGAGTTCCGCCGCCACGCGCAGCAGCGGAGTCACCTAGTGCAG”, the binding signal is 4080 fluorescence intensity (a.u.).

Turning to “AGACGCCGCTTGTAGACAGCCCCATCCTGTCGCCACGTGTCGGAGTCACCTAGTGCAG”, the binding signal was 11300 fluorescence intensity (a.u.).

“GTTGCTCATCCAATGTGACGTCAGATGTTCATAGGAGTACCGGAGTCACCTAGTGCAG”: the binding signal was 13400 fluorescence intensity (a.u.).

“TGTGATTCTGTGAAGATGTCATCAATATTTATAGGAGCGCCGGAGTCACCTAGTGCAG”: the binding signal is 4950 fluorescence intensity (a.u.).

In the case of “GTCGTATTTCCTAATTAATATATATAATTTGTCGTCATTACGGAGTCACCTAGTGCAG”, the binding signal is 3700 fluorescence intensity (a.u.).

“CGACTACTCCACATCACCCGACCCTCTGAGATCACCCTGACGGAGTCACCTAGTGCAG”: the binding signal is 7420 fluorescence intensity (a.u.).

As to “AGCTATCATGTAAGCGTCACGTCAATGCGATGCAGGGGCGCGGAGTCACCTAGTGCAG”, the binding signal is 4630 fluorescence intensity (a.u.).

“CAGCTAGCTCGACGCCCCATCTCTCTCTCTCTCTCTCTCTCGGAGTCACCTAGTGCAG”: the binding signal was 3410 fluorescence intensity (a.u.).

On to “AAGAAATCCAGTGCCTCCCCTCCACCACATGTCATGCTATCGGAGTCACCTAGTGCAG”, for which the binding signal was 3500 fluorescence intensity (a.u.).

On to “CTTGTTGTGCAAGGCCACGTGCCTTTTCTTTTCTATTAGTCGGAGTCACCTAGTGCAG”, for which the binding signal is 4080 fluorescence intensity (a.u.).

Take “TTCGCTAGGCGCATACGTCATCACCCCTCCCTCCCGACTTCGGAGTCACCTAGTGCAG”: the binding signal was 22500 fluorescence intensity (a.u.).

Take “ATGTGGGTCCCACGCGCCACGTAGGCCAATACTGGGTTAACGGAGTCACCTAGTGCAG”: the binding signal is 7600 fluorescence intensity (a.u.).

Consider “AAATCAAGCACTAATCCACTCTGACACGTCATCATGTATCCGGAGTCACCTAGTGCAG”, for which the binding signal is 22400 fluorescence intensity (a.u.).

In the case of “AGATTGTACAACCCACGTACAATCATACCGTATCCACCAACGGAGTCACCTAGTGCAG”, the binding signal is 3320 fluorescence intensity (a.u.).

Regarding “CCGGGAAATTCTTGTGTTGTTGTGTTGGTCTTGAGCAATTCGGAGTCACCTAGTGCAG”, the binding signal is 3630 fluorescence intensity (a.u.).

Turning to “AAAGCCGCACACGTGTTTCCCGCGACCGCGCCACGTCACCCGGAGTCACCTAGTGCAG”, the binding signal was 46700 fluorescence intensity (a.u.).

Take “ATTCGCAGAGCATTTTCCATCCACGTTGGTGCGCCAACTCCGGAGTCACCTAGTGCAG”: the binding signal was 4320 fluorescence intensity (a.u.).

For “CTAGGTTTTGCATCGAGTCATGGAGATAACACAACTAGTGCGGAGTCACCTAGTGCAG”, the binding signal was 3900 fluorescence intensity (a.u.).

For the sequence “GGAACATCCCCTCGATCTTGCACGAGTTTACCATTCGCCACGGAGTCACCTAGTGCAG”, the binding signal is 3390 fluorescence intensity (a.u.).

Consider “GCGTGACGCGGGCATGGGCGTCGGCGTGGCAGGGAAAGCGCGGAGTCACCTAGTGCAG”, for which the binding signal was 4770 fluorescence intensity (a.u.).

Take “GGCGCTGGCAAGATGGAGGCGGAGGGTGGAGGGCGGAGGACGGAGTCACCTAGTGCAG”: the binding signal is 3380 fluorescence intensity (a.u.).

“GCCACATAGATGCCACGTTAACCAAAACCGCATTCCAAACCGGAGTCACCTAGTGCAG”: the binding signal was 6100 fluorescence intensity (a.u.).

“AATCTAAAATGGTTTTGATCCTACGTGGCATCCGTACGTACGGAGTCACCTAGTGCAG”: the binding signal is 9560 fluorescence intensity (a.u.).
